The subject of the assay is primary human hepatic stellate cells (donor 1). Briefly: percent Bodipy-positive cells; higher = more lipid droplet accumulation. As to conditions: 48 h. On the procedure: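 Primary lipid accumulation screen in primary human hepatic stellate cell myofibroblasts (donor 1, passage 8) in 384-well plates. 100 nL of library compound was pin-transferred into 30 µL medium in duplicate, and cells were treated for 48 h. The 'Scaled' score combines distance from plate baseline, toxicity and reproducibility penalties, and is normalised to nortriptyline (positive) and DMSO (negative) controls on each plate. A hit is defined as scaled >0.85 or among the top 3 wells per plate.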

[1] abbreviates: library stock concentration: 3.33 mM.
[2] abbreviates: library stock concentration: 10 mM.
Setting [3] is: library stock concentration: 1 mM.
The mark [4] stands for this setting: library stock concentration: 80 uM.
The mark [5] stands for this setting: library stock concentration: 400 uM.
[6] abbreviates: library stock concentration: 2 mM.

Values joined by “and” are separate entries in the source; they are usually repeats but may differ in a detail not shown here. Equal entries are not always repeated. Structures can show the parent of a compound that is named as a salt. ± gives the standard deviation of the averaged measurements. The list shows a part of the results. Part of the spread comes from offsets between plates or batches.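 Primary human stellate myofibroblasts activated in culture; inactivation shown by regained lipid droplets. Readout: fraction of Hoechst-counted cells exceeding a per-plate Bodipy threshold, duplicate wells, each plate with DMSO negative and nortriptyline positive controls. Hits: control-normalized score beyond the plate's top-tenth-percentile nortriptyline wells, or among its three best wells. Final well concentrations unstated.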

Turning to `Oc1ccc2ccccc2c1SSc1c(O)ccc2ccccc12`, the “percent Bodipy-positive cells” value was 29.83 ± 0.18% under setting [1] and 82.17 ± 0.19% under setting [2].
Regarding `[O-]/[N+](=N\O[C@@H]1O[C@H](CO)[C@H](O)[C@H](O)[C@H]1O)N1CCCC1` [.beta.-Gal-NONOate], the “percent Bodipy-positive cells” value under setting [3] came to 9.06 ± 1.8%.
In the case of `Clc1ccc(Cn2c(CN3CCCC3)nc3ccccc32)cc1` [Clemizole hydrochloride], the “percent Bodipy-positive cells” value was determined as 44.8 ± 6.3%.
On to `COc1ccc2c(c1)c(CC(=O)SC[C@H](NC(C)=O)C(=O)OCCCCO[N+](=O)[O-])c(C)n2C(=O)c1ccc(Cl)cc1` [NO-Indomethacin], for which the “percent Bodipy-positive cells” value under setting [3] was found to be 11.3 ± 4.1%.
Consider `CCCCc1nc2cc(/C=C/C(=O)NO)ccc2n1CCN(CC)CC`, for which the “percent Bodipy-positive cells” value is, setting by setting: under setting [4], 39.4 ± 1.1%; under setting [5], 47.3 ± 3.3%; under setting [6], 84.6 ± 4.1%; under setting [2], 89.1 ± 2.5%.
In the case of `CCCCc1nc2cc(/C=C/C(=O)NO)ccc2n1CCN(CC)CC` [Pracinostat (SB939)], the “percent Bodipy-positive cells” value by setting is: under setting [1], 61.4 ± 6.4%; under setting [2], 56.6 ± 7.2%.
Regarding `O=C(Nc1cccc2cccnc12)c1ccc(N2C(=O)C3C4C=CC(C4)C3C2=O)cc1` (stereo not drawn) [IWR-1-endo], the “percent Bodipy-positive cells” value reads like this: under setting [1], 15.4 ± 14%; under setting [2], 40.8 ± 19%.
For the compound `O=C(O)/C=C/c1ccc(O)c(O)c1` [Caffeic acid], the “percent Bodipy-positive cells” value was 7.86 ± 0.2%.
For `O=C(O)/C=C/c1ccc(O)c(O)c1` [Caffeic Acid], the “percent Bodipy-positive cells” value under setting [3] came to 9.39 ± 2.9% and the “percent Bodipy-positive cells” value under setting [1] is 8.11 ± 0.75%.
Consider `CC1(C)CC(=O)c2c(C(F)(F)F)nn(-c3ccc(C(N)=O)c(N[C@H]4CC[C@H](O)CC4)c3)c2C1`, for which the “percent Bodipy-positive cells” value is, setting by setting: under setting [1], 74.91 ± 0.13%; under setting [2], 70.9 ± 1.1%.
With `NC(N)=Nc1ccc(Cl)cc1` [4-Chlorophenylguanidine hydrochloride], the “percent Bodipy-positive cells” value under setting [2] came out at 9.91 ± 1.1%.
For the compound `CCCCCCCCCCCCCCCC(=O)OC[C@@H](NC(=O)C(Cl)Cl)[C@H](O)c1ccc([N+](=O)[O-])cc1` [Chloramphenicol palmitate], the “percent Bodipy-positive cells” value (library stock concentration: 3.6 mM) came out at 1.56 ± 0.018%.
Turning to `Cc1[nH]c2ccccc2c1C1=C(NCCc2ccc(F)cc2)C(=O)N(C)C1=O`, the “percent Bodipy-positive cells” value runs as follows: under setting [1], 28.4 ± 7.7%; under setting [2], 44.8 ± 0.66%.
`N=C(N)Nc1ccc(C(=O)Oc2ccc3cc(C(=N)N)ccc3c2)cc1` [Nafamostat mesylate]: the “percent Bodipy-positive cells” value (library stock concentration: 11.3 mM) was determined as 8.17 ± 0.11%.
Turning to `N=C(N)Nc1ccc(C(=O)Oc2ccc3cc(C(=N)N)ccc3c2)cc1` [Nafamostat Mesylate], the “percent Bodipy-positive cells” value is 7.27 ± 0.78% under setting [1] and 12.6 ± 6.5% under setting [2].
As for `CC(Cc1ccccc1)(NC(=O)CN)c1ccccc1` (racemic), under setting [2], the “percent Bodipy-positive cells” value stood at 58.58 ± 0.088%.
Turning to `O=C1C(SCCO)=C(SCCO)C(=O)c2ccccc21`, the “percent Bodipy-positive cells” value under setting [2] was determined as 99.73 ± 0.38%.
On the same count and under the same terms, the same measure for `OCC1OC(n2cnc3c(NC4CCCCC4)ncnc32)C(O)C1O` (stereo not given) [N6-Cyclohexyladenosine]: 50.8 ± 6.1%; for `N[C@@H](Cc1c[nH]c2ccc(O)cc12)C(=O)O` [5-Hydroxy-L-tryptophan]: 44 ± 14%.
In the case of `N[C@@H](Cc1c[nH]c2ccc(O)cc12)C(=O)O` [5-hydroxytryptophan (5-HTP)], the “percent Bodipy-positive cells” value worked out at 6.85 ± 1% under setting [1] and 14.2 ± 0.41% under setting [2].
The like results for `CC(=O)Nc1nc2c(Oc3cc(-c4ccc(C(F)(F)F)cc4)ncn3)cccc2s1` were, in that order, 26.1 ± 1.6% and 21.3 ± 1.3%.
On to `O=C(O)Cc1nn(Cc2ccc(Br)cc2F)c(=O)c2ccccc12` [Statil], for which, under setting [2], the “percent Bodipy-positive cells” value was found to be 8.83 ± 1.9%.
As to `CC(C)n1nc(-c2ccc3oc(N)nc3c2)c2c(N)ncnc21`, the “percent Bodipy-positive cells” value under setting [4] came out at 5.6 ± 1.3%; the “percent Bodipy-positive cells” value under setting [5] amounted to 4.6 ± 3.2%; the “percent Bodipy-positive cells” value under setting [6] is 7.86 ± 4.8%; the “percent Bodipy-positive cells” value under setting [1] was found to be 4.04 ± 1.9%; the “percent Bodipy-positive cells” value under setting [2] is 12.6% and 8.67%.
Regarding `COc1cc(C)c(Sc2cnc(NC(=O)c3ccc(CNC(C)C(C)(C)C)cc3)s2)cc1C(=O)N1CCN(C(C)=O)CC1` (stereo not given), the “percent Bodipy-positive cells” value runs as follows: under setting [4], 18 ± 5.5%; under setting [5], 20.9 ± 8.8%; under setting [6], 28.2 ± 7.9%; under setting [2], 74.9 ± 3.4%.
With `Cc1cc(C(C)(C)C)c(O)c(C(C)(C)C)c1` [2,6-di-t-butyl-4-methylphenol], under “library stock concentration: 9.1 mM”, the “percent Bodipy-positive cells” value came to 17.9 ± 1.8%.
Turning to `COc1ccc(-c2cc(=S)ss2)cc1` [Anethole-trithione (anetholtrithion)], the “percent Bodipy-positive cells” value (library stock concentration: 8.3 mM) amounted to 8.46 ± 0.51%.
As to `COc1ccc(NS(=O)(=O)c2sc3ccc(Cl)cc3c2C)cc1N1CCNCC1`, the “percent Bodipy-positive cells” value under setting [1] stood at 39.1 ± 2.3%.
As for `C#CCN[C@@H]1CCc2ccccc21`, the “percent Bodipy-positive cells” value under setting [2] came out at 28 ± 6.3%.
For `C#CCN[C@@H]1CCc2ccccc21` [Rasagiline Mesylate], the “percent Bodipy-positive cells” value reads like this: under setting [1], 14.1 ± 2.6%; under setting [2], 18.8 ± 6.6%.
Turning to `Cn1c(=O)[nH]c2ncn(C)c2c1=O` [1,7-Dimethylxanthine], the “percent Bodipy-positive cells” value under setting [2] is 34 ± 2.7%.
As for `N#C/C(=C\c1ccc(O)c(O)c1)C(=O)OCCc1cccs1`, the “percent Bodipy-positive cells” value under setting [2] is 5.98 ± 3.8%.
Regarding `COc1cc(OC2CCN(C)CC2)ccc1Nc1ncc2c(n1)n(C1CCCC1)c(=O)n2C`, the “percent Bodipy-positive cells” value under setting [1] came out at 47.8 ± 7.9%.
Consider `C1COC(NC(C2CC2)C2CC2)=N1` [Rilmenidine hemifumarate], for which, under setting [2], the “percent Bodipy-positive cells” value was 15.5% and 5.6%.
Same read-out and setting: the same measure for `O=c1c(-c2ccccc2)c1-c1ccccc1` [diphenylcyclopropenone]: 99.28 ± 0.43%.
`CCOc1nc2cccc(C(=O)OCc3oc(=O)oc3C)c2n1Cc1ccc(-c2ccccc2-c2noc(=O)[nH]2)cc1` [Azilsartan Medoxomil]: the “percent Bodipy-positive cells” value amounted to 12.8 ± 8.6% under setting [1] and 7.18 ± 1.6% under setting [2].
`CN1CCN(C2CCN(C(=O)Nc3cc(Oc4ccc(NC(=O)C5(C(=O)Nc6ccc(F)cc6)CC5)c(F)c4)ccn3)CC2)CC1` [Golvatinib (E7050)]: the “percent Bodipy-positive cells” value under setting [1] stood at 83.979 ± 0.052%.
For the compound `OC[C@H]1O[C@@H](n2cnc3c(NC4CCCC4)ncnc32)[C@H](O)[C@@H]1O` [N6-Cyclopentyladenosine], the “percent Bodipy-positive cells” value under setting [2] is 30.7% and 7.76%.
`CN1c2cc(O)c(N=NC(N)=O)cc2CC1S(=O)(=O)O` (stereo not given) [Carbazochrome sodium sulfonate (AC-17)]: the “percent Bodipy-positive cells” value by setting is: under setting [1], 7.4 ± 3.3%; under setting [2], 8.27 ± 4.5%.
